These are yes or no findings as the source states them, for the method shown. Binding seen in cells or lysates may run through a third protein. Some entries that bind do so weakly or less than the wild type.
How the values were obtained:
[1] = biological target: Bruton's tyrosine kinase (BTK) (human (endogenous in NuFF-1)) (UniProt Q06187); assay: co-IP; lysates of mock- or TB40/EmCherry (WT)-infected NuFF-1 fibroblasts (MOI = 0.5 TCID50/cell); IP with anti-BTK, anti-DDX41 or isotype IgG on protein G beads overnight at 4°C; IP buffer 25 mM Tris pH 7.4, 1 mM MgCl2, 2 mM EDTA, 1.0% Triton-X 100, 150 mM NaCl; four washes; western blot for STING, pp65 or pp71
[2] = biological target: DEAD-box helicase 41 (DDX41) (human (endogenous in NuFF-1)) (UniProt Q9UJV9); assay: as above

Amino acid sequences for entries named in this document (tags omitted).
UniProt Q06187: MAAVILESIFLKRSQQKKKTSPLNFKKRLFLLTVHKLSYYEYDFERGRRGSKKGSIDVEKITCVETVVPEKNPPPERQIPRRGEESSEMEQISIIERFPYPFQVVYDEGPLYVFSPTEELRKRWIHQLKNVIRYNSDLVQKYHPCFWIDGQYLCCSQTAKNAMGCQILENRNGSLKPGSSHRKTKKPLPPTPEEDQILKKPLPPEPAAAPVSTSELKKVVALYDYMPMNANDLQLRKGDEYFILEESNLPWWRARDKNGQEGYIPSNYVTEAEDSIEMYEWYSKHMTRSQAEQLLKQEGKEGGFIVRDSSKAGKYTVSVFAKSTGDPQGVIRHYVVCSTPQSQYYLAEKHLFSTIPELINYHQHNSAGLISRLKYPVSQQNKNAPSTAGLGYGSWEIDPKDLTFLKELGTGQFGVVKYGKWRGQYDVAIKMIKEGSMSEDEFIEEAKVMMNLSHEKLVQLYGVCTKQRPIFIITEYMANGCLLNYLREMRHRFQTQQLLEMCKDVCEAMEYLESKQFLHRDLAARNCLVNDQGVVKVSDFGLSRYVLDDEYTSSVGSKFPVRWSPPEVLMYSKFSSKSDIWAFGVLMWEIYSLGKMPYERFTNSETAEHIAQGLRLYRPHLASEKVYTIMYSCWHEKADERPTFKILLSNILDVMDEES
UniProt Q9UJV9: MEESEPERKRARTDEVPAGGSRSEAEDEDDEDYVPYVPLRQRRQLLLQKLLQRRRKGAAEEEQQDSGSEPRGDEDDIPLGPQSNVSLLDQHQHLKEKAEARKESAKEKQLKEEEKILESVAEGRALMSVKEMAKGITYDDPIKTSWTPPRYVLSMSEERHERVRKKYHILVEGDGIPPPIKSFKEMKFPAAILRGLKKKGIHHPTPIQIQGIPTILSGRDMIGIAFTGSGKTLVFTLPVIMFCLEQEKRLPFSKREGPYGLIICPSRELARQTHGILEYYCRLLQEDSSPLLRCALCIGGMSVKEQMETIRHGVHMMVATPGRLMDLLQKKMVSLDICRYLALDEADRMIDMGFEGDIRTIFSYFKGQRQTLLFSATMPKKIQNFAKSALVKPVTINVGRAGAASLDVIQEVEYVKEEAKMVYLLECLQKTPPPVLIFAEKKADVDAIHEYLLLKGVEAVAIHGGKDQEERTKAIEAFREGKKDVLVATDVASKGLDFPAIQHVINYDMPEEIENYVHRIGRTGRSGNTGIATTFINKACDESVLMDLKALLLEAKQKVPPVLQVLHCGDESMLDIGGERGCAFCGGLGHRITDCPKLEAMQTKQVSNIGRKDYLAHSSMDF
UniProt Q86WV6: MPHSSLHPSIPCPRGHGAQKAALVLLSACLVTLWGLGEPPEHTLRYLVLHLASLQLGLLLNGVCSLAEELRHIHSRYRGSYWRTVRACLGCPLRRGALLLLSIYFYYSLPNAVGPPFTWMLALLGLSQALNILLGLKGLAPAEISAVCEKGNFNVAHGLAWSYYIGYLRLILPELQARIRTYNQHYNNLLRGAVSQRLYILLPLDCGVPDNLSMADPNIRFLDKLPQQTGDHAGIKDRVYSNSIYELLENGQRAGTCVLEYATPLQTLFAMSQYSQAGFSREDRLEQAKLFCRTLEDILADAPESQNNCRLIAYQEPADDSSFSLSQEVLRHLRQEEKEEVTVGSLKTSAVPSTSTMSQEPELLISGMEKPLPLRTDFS

binding [1]: binds
binding [2]: binds
Substance: stimulator of interferon genes (STING) (from UniProt Q86WV6 1-379)
